The values that follow come from publication PMC8897400.

The chains behind the UniProt entries cited, without tags or fusion partners. Where a name states a change or a piece, a line headed by the entry shows the natural chain unless it says otherwise.
UniProt O95373: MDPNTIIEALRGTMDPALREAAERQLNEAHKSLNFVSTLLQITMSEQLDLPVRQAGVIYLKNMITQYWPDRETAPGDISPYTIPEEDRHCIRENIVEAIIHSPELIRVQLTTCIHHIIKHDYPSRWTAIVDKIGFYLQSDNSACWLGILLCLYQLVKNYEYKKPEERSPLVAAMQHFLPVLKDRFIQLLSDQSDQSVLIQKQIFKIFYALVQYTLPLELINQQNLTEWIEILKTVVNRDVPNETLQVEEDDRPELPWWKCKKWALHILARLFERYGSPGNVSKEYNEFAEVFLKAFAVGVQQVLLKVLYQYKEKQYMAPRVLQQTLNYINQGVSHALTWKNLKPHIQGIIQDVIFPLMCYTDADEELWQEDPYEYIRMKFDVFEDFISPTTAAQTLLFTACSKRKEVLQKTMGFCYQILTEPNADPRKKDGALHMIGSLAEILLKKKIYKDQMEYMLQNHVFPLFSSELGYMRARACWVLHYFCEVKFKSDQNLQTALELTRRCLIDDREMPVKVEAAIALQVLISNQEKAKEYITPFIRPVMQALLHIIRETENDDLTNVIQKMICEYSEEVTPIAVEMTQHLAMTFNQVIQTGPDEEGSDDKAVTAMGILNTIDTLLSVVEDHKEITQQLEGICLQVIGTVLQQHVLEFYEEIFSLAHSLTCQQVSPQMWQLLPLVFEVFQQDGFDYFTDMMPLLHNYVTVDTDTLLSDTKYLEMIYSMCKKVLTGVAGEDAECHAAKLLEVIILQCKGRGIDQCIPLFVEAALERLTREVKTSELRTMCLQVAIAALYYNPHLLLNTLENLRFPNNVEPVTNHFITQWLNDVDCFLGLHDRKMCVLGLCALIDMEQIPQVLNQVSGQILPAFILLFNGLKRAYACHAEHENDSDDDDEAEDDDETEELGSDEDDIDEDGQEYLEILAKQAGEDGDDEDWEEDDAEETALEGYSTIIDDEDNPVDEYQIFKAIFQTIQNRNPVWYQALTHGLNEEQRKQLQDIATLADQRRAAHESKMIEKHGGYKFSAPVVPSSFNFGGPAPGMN
UniProt P08253: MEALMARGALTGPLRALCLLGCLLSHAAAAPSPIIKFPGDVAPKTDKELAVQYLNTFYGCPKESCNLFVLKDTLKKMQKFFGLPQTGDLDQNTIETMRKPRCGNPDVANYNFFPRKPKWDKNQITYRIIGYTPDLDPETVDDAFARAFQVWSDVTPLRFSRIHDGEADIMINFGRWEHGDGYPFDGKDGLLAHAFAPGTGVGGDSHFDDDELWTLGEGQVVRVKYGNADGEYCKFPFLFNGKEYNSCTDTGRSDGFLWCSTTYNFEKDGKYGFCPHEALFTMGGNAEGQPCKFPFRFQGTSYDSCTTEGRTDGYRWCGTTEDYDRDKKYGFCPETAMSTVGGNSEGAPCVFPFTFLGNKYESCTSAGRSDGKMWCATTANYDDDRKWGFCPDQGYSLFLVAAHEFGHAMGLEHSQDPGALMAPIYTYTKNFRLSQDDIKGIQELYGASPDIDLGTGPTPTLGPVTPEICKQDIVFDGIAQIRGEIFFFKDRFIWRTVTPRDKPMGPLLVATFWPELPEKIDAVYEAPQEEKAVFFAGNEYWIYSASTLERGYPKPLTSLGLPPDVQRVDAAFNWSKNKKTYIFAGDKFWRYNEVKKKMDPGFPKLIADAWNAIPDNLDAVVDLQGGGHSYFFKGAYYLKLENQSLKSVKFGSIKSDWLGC

For this experiment, the target named is endogenous Importin-7 (human (endogenous in RPE-1)) (UniProt O95373). The experiment in a line: proximity ligation; in situ PLA (Duolink) of endogenous YAP (antibody 63.7) and Imp7 (rabbit antibody) in fixed, permeabilised RPE-1 cells; also after knock-down of Imp7, YAP or Smad3.

These are yes or no findings as the source states them, for the method shown. In cells and extracts the contact can be indirect.

endogenous MMP2 (from UniProt P08253): the binding result is listed as “no binding”.
